Reference: PubChem BioAssay AID2685 (National Center for Advancing Translational Sciences (NCATS), 2010)
The campaign covered roughly 320,000 compounds. About 2,100 (0.66%) were called active. The shares of active, inactive and inconclusive entries below differ from those in the screen. The call rests on the fitted dose curve; in most records, active means well fitted inhibition curve with a large enough effect in the signal ratio, with a control signal flat (not every such curve was filed as active); inconclusive means small, poorly fitted or top-dose-only effect, or effect the other way, or a change in a side signal; inactive means flat fitted curve, though single readings scatter; the % refers to the signal ratio. Where the call is inconclusive, the potency comes from a doubtful curve fit.

Test: qHTS Assay for Lipid Storage Modulators in Drosophila S3 Cells
Conditions: BODIPY lipid droplet fluorescence, 18-24 h, cells fed with added oleic acid; lipid storage change, negative = inhibition: at 46.1 µM (top of the series) unless noted
Method in brief: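 Drosophila S3 cells got compounds at several concentrations plus oleic acid (400 uM solution). Laser-scanning cytometry with 488 nm excitation read lipid droplets at 500-530 nm and cells at 575-640 nm. Percent activity was relative to 20 uM Triacsin C.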
On the % scale 0 is the no-effect control and ±100 the full control effect; potency means the concentration at half of the fitted maximal effect.

SMILES	lipid storage change, negative = inhibition	Potency	outcome
CCCC1CC(c2csc(N)n2)CCO1 (centres undefined)	inconclusive: 18.6%		
COCCCn1c(SCC(=O)NCc2ccco2)nc2sc3c(c2c1=O)CCC3		inconclusive: 4.61 µM [falling, full curve, poor fit]	
CNC(=O)CSc1nc2c([nH]c3ccccc32)c(=O)n1CCOC	inconclusive: 12.5%		
CCOc1cccc(-c2cc(C(=O)Nc3ccon3)c3ccccc3n2)c1	inconclusive: 63.6%		
Cc1cc(NC(=O)Cn2c(=O)c3c(ncn3CCC(C)C)n(Cc3ccccc3)c2=O)no1	inconclusive: 3.46%		
CS(=O)(=O)c1ccc(Cl)c(NC(=O)COC(=O)COc2ccc3c(c2)CCC3)c1	inconclusive		
O=C(Nc1cccc(-c2nn[nH]n2)c1)c1ccc(Br)s1	inconclusive: 30.2%		
O=c1[nH]oc2cc(Cl)ccc12	inconclusive: -6.57%		
Cc1ccc(-n2ncc3c2CC(C)(C)CC3NC(=O)Cc2c(C)noc2C)cc1 (centres undefined)	inconclusive: -92.2%		
COc1ccc(C(CNC(=O)c2cccc(NS(=O)(=O)c3ccc(C)c(F)c3)c2)N(C)C)cc1 (centres undefined)	inconclusive: 0.6%		
N=c1sc2ccccc2n1-c1ccccc1	inconclusive: -28.6%		
CCCN(CCC)C(C)C(=O)NCC1(c2ccccc2)CCCC1 (centres undefined)	inconclusive: 7.53%		
Cc1ccc(C)c(NC(=O)CCC(=O)NN=C2CCCC2)c1		inconclusive: 29.1 µM [activator, single point]	
NNC(=O)c1cc2c(s1)CCCCCC2	inconclusive: 435%		
CC(C)Oc1cccc(C(=O)NC(=S)NCc2cccnc2)c1	inconclusive: -0.865%		
COc1ccccc1N(Cc1cc(=O)[nH]c2ccccc12)C(C)=O	inconclusive: 26.7%		
CCOc1cc(C(=S)N2CCOCC2)ccc1OS(=O)(=O)c1ccc(OC)cc1	inconclusive: 8.55%		
O=C(NCc1cccs1)c1ccc(CS(=O)Cc2ccccc2Cl)o1 (centres undefined)		inconclusive: 6.51 µM [activator, single point]	
CCCN1C(=O)/C(=C/c2ccc(C)s2)SC1=Nc1ccc(OC)cc1	inconclusive: -51%		
Cc1ccc(NC(=O)CCS(=O)(=O)c2ccc3c(c2)NC(=O)C(C)S3)cc1Cl (centres undefined)	inconclusive: 22%		
Cc1nn(-c2ccccc2)c(Cl)c1C(=O)N1CCN(c2ncnc3c2cnn3-c2ccccc2)CC1		active: 7.31 µM	
CC(C)n1nc(C(=O)NCCc2ccc(S(N)(=O)=O)cc2)c2ccccc2c1=O	inconclusive: -30.9%		
COc1ccccc1C1NC(=O)NC(C)=C1C(C)=O (centres undefined)		active: 14.6 µM	
CN(C(=O)COC(=O)c1ccccc1Nc1ccccc1)c1c(N)n(Cc2ccccc2)c(=O)[nH]c1=O	inconclusive		
O=C(COC(=O)Cc1ccc(Cl)cc1)NCc1ccc2c(c1)OCO2		inconclusive: 0.651 µM [falling, single point]	
O=C(NC1CCN(Cc2ccccc2)C1)c1cc(S(=O)(=O)N2CCOCC2)ccc1Cl (centres undefined)	inconclusive: -9.98%		
CC(=O)Nc1ccccc1OCC(=O)NC1CCCCC1C (centres undefined)		inconclusive: 5.17 µM [falling, single point]	

SMILES	lipid storage change, negative = inhibition	Potency	outcome
CCOc1ccc(N2C(=O)C3ON(c4ccccc4)C(c4cccs4)C3C2=O)cc1 (centres undefined)	inconclusive: 1.63%		
CN(C)c1ccc(NC(=O)c2ccc(Cn3cc([N+](=O)[O-])cn3)cc2)cc1	inconclusive: 3.82%		
Cc1cc(C)n(-c2nc3c(c(=O)n(C)c(=O)n3C)n2CCO)n1	inconclusive: 19.2%		
O=C(Nc1ccc(COc2ccccc2)cc1)Nc1cccc(C(=O)O)c1	inconclusive: 9.91%		
Cc1ccc(C2=N/C(=C\c3cccs3)C(=O)N2Nc2ccccc2)cc1	inconclusive: 17.6%		
COc1cc(C(=O)Nc2cccc(C)c2C)ccc1OCC(=O)N1CCOCC1	inconclusive: 13.7%		
CCn1c(=O)cc(OCC(=O)N2CCN(c3cccc(C(F)(F)F)c3)CC2)c2ccccc21	inconclusive: -36%		
CC(C)Oc1ccc(C(=O)N/N=C/c2ccc(-c3ccc(S(=O)(=O)Nc4ncccn4)cc3)o2)cc1		inconclusive: 32.6 µM [cytotoxic, single point]	
CC(C)CN(C(=O)COC(=O)CCc1c[nH]c2ccccc12)c1c(N)n(Cc2ccccc2)c(=O)[nH]c1=O	inconclusive		
COc1cc(NC(=O)COC(=O)CC(NC(C)=O)c2ccccc2)cc(OC)c1 (centres undefined)	inconclusive: 104%		
O=C(NCCNc1ccc(Cl)cc1[N+](=O)[O-])c1ccccc1F	inconclusive: -42.7%		
CCOc1cc(N2CCOCC2)c(OCC)cc1NC(=O)CSc1ncccn1		inconclusive: 4.11 µM [activator, full curve, poor fit]	
Cc1cc(C)nc(NC(=O)c2cccc(Cl)c2)n1		inconclusive: 0.82 µM [activator, full curve, poor fit]	
O=C(OCC1COc2ccccc2O1)c1c(F)cccc1F (centres undefined)	inconclusive: -31.5%		
O=C(CSc1ccc(-c2ccco2)nn1)Nc1cccc(F)c1		inconclusive: 18.4 µM [falling, partial curve, poor fit]	
O[C@@H]1C2CCCC1[C@]1(O)CCCCC1C2 (some centres undefined)	inconclusive: 135%		
Cc1ccccc1NC(=O)c1nn(C)c2c1CS(=O)(=O)c1ccccc1-2	inconclusive: 98.8%		
Cc1ccccc1C1NC(c2ccccc2C)C(C)C(=O)C1C (centres undefined)		inconclusive: 18.4 µM [falling, single point]	
Cc1ccc(-c2nc(C)c(C(=O)O)s2)cc1	inconclusive: 4.27%		
CCc1ccccc1NC(=O)CSc1nnc([C@@H]2CCCN2C(=O)OC(C)(C)C)o1		inconclusive: 5.8 µM [activator, single point]	
Cc1nc2ccccc2c2oc(C(=O)NCCCN3CCCC(C)C3)cc12 (centres undefined)		inconclusive: 32.6 µM [activator, partial curve, poor fit]	
CCCCSc1nnc(-c2ccc(NC(=O)CC)cc2)n1C		inconclusive: 6.51 µM [falling, single point]	
Cc1nc(NCc2ccco2)c2c(C)c(C)sc2n1		inconclusive: 3.26 µM [activator, partial curve]	
NS(=O)(=O)c1cccc(NC(=O)CCc2ccc(S(=O)(=O)N3CCOCC3)cc2)c1	inconclusive		
Cc1ccc(S(=O)(=O)N(C)/N=C/C=C/c2ccccc2)cc1	inactive: -4.88%		
CC(=O)N(Cc1cccnc1)Cc1cc2ccc(C)cc2[nH]c1=O	inactive: 15.6%		
O=C1c2ccccc2C(=O)C1c1ccccn1	inactive: 1.08%		

Exported as a markdown table: 4 of the compounds above

| SMILES | lipid storage change, negative = inhibition | Potency | outcome |
| --- | --- | --- | --- |
| CCn1c(=O)cc(OCC(=O)N2CCN(c3cccc(C(F)(F)F)c3)CC2)c2ccccc21 | inconclusive: -36% |  |  |
| CC(C)Oc1ccc(C(=O)N/N=C/c2ccc(-c3ccc(S(=O)(=O)Nc4ncccn4)cc3)o2)cc1 |  | inconclusive: 32.6 µM [cytotoxic, single point] |  |
| CC(C)CN(C(=O)COC(=O)CCc1c[nH]c2ccccc12)c1c(N)n(Cc2ccccc2)c(=O)[nH]c1=O | inconclusive |  |  |
| COc1cc(NC(=O)COC(=O)CC(NC(C)=O)c2ccccc2)cc(OC)c1 (centres undefined) | inconclusive: 104% |  |  |

Further entries.

SMILES	lipid storage change, negative = inhibition	Potency	outcome
Cc1nn(-c2ccccc2)c2[nH]c(=O)cc(C(F)F)c12		inconclusive: 7.31 µM [activator, partial curve]	
COc1cc(-c2nc3cnccn3c2NC(C)(C)CC(C)(C)C)ccc1O	inconclusive: -100%		
COc1ccccc1CC(=O)Nc1cccc(S(=O)(=O)N2CCOCC2)c1	inconclusive: 22.6%		
O=C(O)CCC(=O)N1N=C(c2ccccc2)CC1c1ccc(Br)cc1 (centres undefined)		inconclusive: 6.51 µM [activator, single point]	
O=C(O)CCc1ccc(-c2cccs2)n1-c1ccc(C(=O)O)cc1	inconclusive: -37.8%		
O=C(NCc1cccc(Cl)c1)c1ccc(N2CC3CC(C2)c2cccc(=O)n2C3)c(NC(=O)c2cccnc2)c1 (centres undefined)	inconclusive: -11.9%		
Cc1c(OC(C)C(=O)NCc2ccncc2)ccc2c3c(c(=O)oc12)CCC3 (centres undefined)			inactive [at 46.1 µM]
Cc1ccc2c(c1)N(C(=O)CCC(=O)NC1CCCCCC1)CC(C)O2 (centres undefined)		inconclusive: 29.1 µM [falling, single point]	
Cc1n[nH]c(=S)n1/N=C/c1ccc(OCc2ccc(Cl)cc2)cc1		inconclusive: 3.26 µM [activator, single point]	
CCCC(=O)N(c1ccc(OC)cc1)C1C=CS(=O)(=O)C1 (centres undefined)	inconclusive: -40.6%		
O=[N+]([O-])c1ccc2nc(-c3ccccn3)[nH]c2c1	inconclusive: -48.8%		
Cc1[nH]c2ccccc2c1Cc1nnc(SCC(N)=O)o1	inconclusive: 13.8%		
Cc1c(S(=O)(=O)NCc2ccccc2)c(=O)n(C)c(=O)n1C	inconclusive: 34%		
O=C(CSCc1ccccc1)N/N=C/c1ccccc1OCc1ccccc1	inconclusive: -66.2%		
O=C1C(Cl)=C(NCc2cccnc2)C(=O)c2ccccc21		inconclusive: 18.4 µM [falling, single point]	
O=C(CSCc1ccc(F)cc1)Nc1ccc(F)cc1	inactive: 0.0604%		
NCCCCCC(=O)N/N=C/c1coc2ccccc2c1=O	inconclusive: -2.97%		
COC(=O)c1cc(C)sc1NC(=O)c1cccnc1	inconclusive: 12.1%		
CC(=O)c1cccc(NC(=O)CCCCCn2nnc3ccccc3c2=O)c1		inconclusive: 0.411 µM [falling, partial curve, poor fit]	
Cn1cnnc1SCC(=O)c1ccc2c(c1)OCCO2		inconclusive: 0.411 µM [falling, partial curve, poor fit]	
O=C(/C=C/c1cccc(C(F)(F)F)c1)N1CCN(c2ccccn2)CC1	inconclusive: -49.6%		
COC(C)(C)[C@]12CC(O)(c3ccccc3)ON1[C@H]1CCCCC1N2O (some centres undefined)	inconclusive: -8.69%		
O=C1NC(c2ccccc2)Oc2ccccc21 (centres undefined)	inconclusive: -139%		
O=C(OCc1nnc(-c2ccccc2)o1)C1CC(=O)N(c2ccccc2)C1 (centres undefined)	inconclusive: -7.55%		
COc1ccc(OCC(=O)NCCCNC(=O)COc2ccc(OC)cc2)cc1		inconclusive: 8.2 µM [activator, partial curve, poor fit]	
